PubChem BioAssay AID1259424 – University of Nebraska Medical Center – 2018
Test: 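Rank knockdowns across the genome by resemblance to the KSR1 depletion profile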 (primary screen). System: human HCT116 colon cancer cells. Knock-down reagent: siRNA pool against human genes, 50 nM. Measured: 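Six signature mRNAs by branched-DNA multiplex assay, scaled to two housekeeping genes and non-targeting median, log2; matched to mean KSR1 knockdown profile by Pearson correlation and euclidean distance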. Scale: mean correlation with KSR1 profile: higher = expression change more like KSR1 knockdown.
In all, the deposit lists about 14,000 reagents; shown is a random part of them. 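Higher correlation or smaller distance means closer resemblance to KSR1 loss; control wells, including KSR1 knockdowns, recur on many plates.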 Not all columns of the deposit are shown. The record does not give: the time to read-out.

| target gene | mean correlation with KSR1 profile |
| --- | --- |
| DUS4L | -0.211 |
| VN1R2 | 0.855 |
| TAF13 | -0.227 |
| ZNF266 | -0.0373 |
| MAGOHB | -0.583 |
| WDR18 | -0.537 |
| INTS8 | -0.329 |
| SPON1 | -0.365 |
| SIGLEC1 | -0.292 |
| CD300C | -0.745 |
| ZNF770 | -0.0336 |
| B4GALT6 | 0.0285 |
| TNP1 | -0.508 |
| SEMA3A | -0.742 |
| GBA2 | 0.0402 |
| CRYBA4 | -0.0118 |
| KIF3B | 0.343 |
| CSNK2A1 | -0.202 |
| CASP9 | -0.71 |
| PKIG | -0.638 |
| SALL3 | 0.364 |
| USPL1 | -0.524 |
| ATP5F1B | -0.0962 |
| ACOXL | 0.139 |
| BCAT1 | 0.53 |

6 consecutive reagents from above, quoted:
| target gene | mean correlation with KSR1 profile |
| --- | --- |
| B4GALT6 | 0.0285 |
| TNP1 | -0.508 |
| SEMA3A | -0.742 |
| GBA2 | 0.0402 |
| CRYBA4 | -0.0118 |
| KIF3B | 0.343 |

The list goes on.
| target gene | mean correlation with KSR1 profile |
| --- | --- |
| METTL2B | -0.404 |
| TNFAIP8 | -0.412 |
| SNX1 | 0.416 |
| NDUFA7 | -0.24 |
| DNASE1L1 | -0.221 |
| HOXD13 | 0.115 |
| SMTN | -0.314 |
| PSMB2 | 0.41 |
| TUT1 | -0.712 |
| ANKRD28 | -0.221 |
| EFL1 | 0.355 |
| SNAPIN | -0.185 |
| BCAT2 | 0.225 |
| HHAT | -0.168 |
| NAPA | -0.226 |
| ERCC2 | -0.61 |
| C19orf44 | 0.901 |
| EXOSC4 | -0.553 |
| RRAD | 0.471 |
| SLC6A14 | 0.089 |
| ZNF217 | -0.29 |
| XDH | -0.127 |
| PCSK7 | 0.218 |
| ALDH1A1 | -0.0644 |
| CCDC87 | -0.832 |
